Measured values from publication PMC9775310, “Anticancer, Antimicrobial, and Antioxidant Activities of Organodiselenide-Tethered Methyl Anthranilates” (Biomolecules, 2022).

Columns and labels:
MCF-7 cells = experiment: MTT assay, antiproliferative activity, MCF-7 breast carcinoma cells; assay type: cell-based; details: therapeutic index, WI38 vs MCF-7
Protocol: (§1) The anticancer activity of the OSe was performed using the MTT assay against liver (HepG2) and breast (MCF-7) carcinoma cells, as well as normal WI-38 cells following the reported method. Experimental details can be found in the Supplementary Materials Section S1.
Accordingly, the anticancer properties of the OSe hybrids were assessed against two cancer cell lines, i.e., HepG2 and MCF-7 cells. Furthermore, their corresponding cytotoxicity was also estimated against the immortalized lung WI-38 fibroblasts employing the MTT assay. The Adriamycin cancer drug was used as the positive control.
(§2) 1.1. The biological assays
(§3) 1.1.1. The anticancer activity
(§4) The breast adenocarcinoma (MCF-7), Hepatocellular carcinoma (HEPG-2), and normal fibroblast (WI-38) cells were obtained from ATCC via Holding company for biological products and vaccines (VACSERA), Cairo, Egypt. The reagents […] medium, MTT, DMSO, and fetal bovine serum was obtained from Sigma Aldrich. Dulbecco’s modified Eagle’s medium was used as the culture medium for the cells, and the cytotoxicity was evaluated using the reported MTT assay. Doxorubicin was used as the positive reference, and the IC50 values were obtained from the corresponding dose-response curve.
(§5) This colorimetric assay is based on converting the yellow tetrazolium bromide (MTT) to a purple formazan derivative by mitochondrial succinate dehydrogenase in viable cells. Cell lines were cultured in […] medium with 10% fetal bovine serum. Antibiotics added were 100 units/ml penicillin and 100µg/ml streptomycin at 37 C in a 5% Co2 incubator. The cell lines were seeded in a 96-well plate at a density of 1.0x10^4 cells/well. at 37 C for 48 h under 5% […]
Finally, dimethyl sulfoxide (DMSO) in the volume of 100 µl is added to each well to dissolve the purple formazan formed. […]

HepG2 cells = experiment: MTT assay, antiproliferative activity, HepG2 liver carcinoma cells; assay type: cell-based; details: therapeutic index, WI38 vs HepG2
Protocol: as §1
Accordingly, the anticancer properties of the OSe hybrids were assessed against two cancer cell lines, i.e., HepG2 and MCF-7 cells. Furthermore, their corresponding cytotoxicity was also estimated against the immortalized lung WI-38 fibroblasts employing the MTT assay. The Adriamycin cancer drug was used as the positive control. The concentration inhibition, 50%, needed to kill half of the cells (IC50) was estimated from (concentration-response plots) and tabulated in Table 1.
as §2, §3, §4, §5
Finally, dimethyl sulfoxide (DMSO) in the volume of 100 µl is added to each well to dissolve the purple formazan formed. The colorimetric assay is measured and recorded at an absorbance of 570 nm using a plate reader (EXL 800, USA). […]

Compound: COC(=O)c1cc([Se]C)ccc1N [Compound 14, methyl 2-amino-5-(methylselanyl) benzoate]
- MCF7 TI (IC50 WI38 / IC50 MCF-7) (MCF-7 cells): 11
- HepG2 TI (IC50 WI38 / IC50 HepG2) (HepG2 cells): 17

Compound: COC(=O)c1cc([Se][Se]c2ccc(N)c(C(=O)OC)c2)ccc1N [Compound 5, dimethyl 5,5′-diselanediylbis(2-aminobenzoate)]
- MCF7 TI (IC50 WI38 / IC50 MCF-7) (MCF-7 cells): 3.6
- HepG2 TI (IC50 WI38 / IC50 HepG2) (HepG2 cells): 5

Compound: COC(=O)c1cc([Se]Cc2ccccc2)ccc1N [Compound 15, methyl 2-amino-5-(benzylselanyl) benzoate]
- MCF7 TI (IC50 WI38 / IC50 MCF-7) (MCF-7 cells): 2
- HepG2 TI (IC50 WI38 / IC50 HepG2) (HepG2 cells): 3.9

Compound: COC(=O)c1cc([Se]C#N)ccc1N [Compound 4, Methyl 2-amino-5-selenocyanatobenzoate]
- MCF7 TI (IC50 WI38 / IC50 MCF-7) (MCF-7 cells): 2.3
- HepG2 TI (IC50 WI38 / IC50 HepG2) (HepG2 cells): 4.8

Compound: COc1cccc2c1C(=O)c1c(O)c3c(c(O)c1C2=O)C[C@@](O)(C(=O)CO)C[C@@H]3O[C@H]1C[C@H](N)[C@H](O)[C@H](C)O1 [Adriamycin, reference compound]
- MCF7 TI (IC50 WI38 / IC50 MCF-7) (MCF-7 cells): 1.6
- HepG2 TI (IC50 WI38 / IC50 HepG2) (HepG2 cells): 1.5

Compound: CCOC(=O)C(C#N)=NNc1ccc([Se][Se]c2ccc(NN=C(C#N)C(=O)OCC)c(C(=O)OC)c2)cc1C(=O)OC [Compound 6, dimethyl 5,5′-diselanediylbis(2-(2-(1-cyano-2-ethoxy-2-oxoethylidene) hydrazinyl) benzoate)]
- MCF7 TI (IC50 WI38 / IC50 MCF-7) (MCF-7 cells): 2.7
- HepG2 TI (IC50 WI38 / IC50 HepG2) (HepG2 cells): 2.6

Compound: COC(=O)c1cc([Se]CC(=O)Nc2ccccc2)ccc1N [Compound 16, methyl 2-amino-5-((2-oxo-2-(phenylamino)ethyl)selanyl) benzoate]
- MCF7 TI (IC50 WI38 / IC50 MCF-7) (MCF-7 cells): 1.4
- HepG2 TI (IC50 WI38 / IC50 HepG2) (HepG2 cells): 2.3
